Consider 19 molecules from PubChem BioAssay AID328 (DTP/NCI, 2004).

For this assay, the system named is BDF1 mice, P388 leukemia ip, median survival T/C. Kind of assay: NCI In Vivo Anticancer Drug Screen. Data for tumor model P388 Leukemia (intraperitoneal) in B6D2F1 (BDF1) mice. As to conditions: T/C endpoint: median survival time, higher T/C = longer survival. A digest of the protocol:
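Steps: implant the tumour, treat one group with compound and another with vehicle, record survival, then divide treated by control.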

Setting [1] is: dose: 2.0 mg/kg/injection, schedule: Q01DX009 (ip), vehicle: other.
Where [2] appears, read: dose: 12.5 mg/kg/injection, schedule: Q01DX009 (ip), vehicle: saline.
The mark [3] stands for this setting: dose: 100.0 mg/kg/injection, schedule: Q01DX009 (ip), vehicle: saline with Tween-80.
[4] abbreviates: dose: 200.0 mg/kg/injection, schedule: Q01DX009 (ip), vehicle: saline with Tween-80.
Where [5] appears, read: dose: 400.0 mg/kg/injection, schedule: Q01DX010 (ip), vehicle: water.
[6] abbreviates: dose: 100.0 mg/kg/injection, schedule: Q01DX009 (ip), vehicle: Klucel (hydroxypropylcellulose) (HPC).
[7] abbreviates: dose: 150.0 mg/kg/injection, schedule: Q01DX009 (ip), vehicle: saline.

The structures appear in SMILES notation. The list does not hold the whole screen: it gathers tests that were run many times, whatever their T/C, doses with no T/C, and many T/C values between a quarter and a half above the control. Further doses and runs are listed elsewhere. T/C: endpoint of the treated group in % of that of the vehicle group. Some doses have a count of surviving animals in place of a T/C: the source holds a T/C of zero for them, seemingly a mark for toxic or unscored doses. Some survivor counts are full or nearly so, which does not show that the dose was tolerated: survival well below the control is almost never listed, so the zero probably covers shortened survival too. Counts of survivors are from the toxicity check (mostly the fifth day) where no day follows; animals may have died later. Schedules are NCI's codes, read here as Q, the interval in days (D) or hours (H), X, the number of doses. Where survival is the endpoint, the PubChem record calls one and a half times the control and up active, and a quarter to a half above the control has no call in these data; cut-offs in other NCI protocols can differ. Some T/C values are followed by the survivors on the day toxicity was checked, most often the fifth; where none is given, no animal had died by that day. Some entries hold several experiments; the results are listed from low to high.

For the molecule `CO[C@@]12[C@H](COC(N)=O)C3=C(C(=O)C(C)=C(N)C3=O)N1C[C@@H]1N[C@@H]12`, under “dose: 0.13 mg/kg/injection, schedule: Q01DX010 (ip), vehicle: saline”, the T/C is 138 and 140 % of control [4 of 6 alive]. Moreover, the survivor count reads like this: (dose: 6.5 mg/kg/injection, schedule: Q04DX003 (ip), vehicle: saline) 8 of 8; (dose: 10.8 mg/kg/injection, schedule: Q04DX003 (ip), vehicle: saline) 8 of 8; (dose: 12.0 mg/kg/injection, schedule: Q01DX001 (ip), vehicle: saline) 10 of 10; (dose: 18.0 mg/kg/injection, schedule: Q04DX003 (ip), vehicle: saline) 5 of 8; (dose: 30.0 mg/kg/injection, schedule: Q04DX003 (ip), vehicle: saline) 2 of 8.

For `O=C1/C(=C\c2ccccc2)C(Br)c2ccccc21` (configuration not stated), under “dose: 50.0 mg/kg/injection, schedule: Q01DX009 (ip), vehicle: water”, the survivor count is listed as 3 of 6.

In the case of `O=C(Nc1ccccc1)C1(Br)CC2(C1)CC(Br)(C(=O)Nc1ccccc1)C2` (configuration not stated), the survivor count (dose: 400.0 mg/kg/injection, schedule: Q01DX001 (ip), vehicle: saline with Tween-80) is reported as 6 of 6.

On to `CCC[CH2][Sn](=[S])[CH2]CCC`, for which the T/C is 127 % of control (dose: 0.88 mg/kg/injection, schedule: Q01DX009 (ip), vehicle: other); 126 % of control (dose: 1.3 mg/kg/injection, schedule: Q01DX009 (ip), vehicle: other); 128 % of control under setting [1]; 135 % of control (dose: 50.0 mg/kg/injection, schedule: Q01DX010 (ip), vehicle: carboxymethylcellulose (CMC)). The survivor count reads like this: under setting [1], 6 of 6; (dose: 3.0 mg/kg/injection, schedule: Q01DX009 (ip), vehicle: other) 6 of 6; (dose: 4.0 mg/kg/injection, schedule: Q04DX003 (ip), vehicle: other) 5 of 6; (dose: 4.5 mg/kg/injection, schedule: Q01DX009 (ip), vehicle: other) 2 of 6; (dose: 6.0 mg/kg/injection, schedule: Q04DX003 (ip), vehicle: other) 6 of 6; (dose: 9.0 mg/kg/injection, schedule: Q04DX003 (ip), vehicle: other) 1 of 6. Also, the survivor count runs as follows: (dose: 100.0 mg/kg/injection, schedule: Q01DX010 (ip), vehicle: carboxymethylcellulose (CMC)) 5 of 6; (dose: 100.0 mg/kg/injection, schedule: Q04DX003 (ip), vehicle: other) 0 of 6; (dose: 200.0 mg/kg/injection, schedule: Q04DX003 (ip), vehicle: other) 0 of 6; (dose: 400.0 mg/kg/injection, schedule: Q01DX010 (ip), vehicle: carboxymethylcellulose (CMC)) 6 of 6; (dose: 400.0 mg/kg/injection, schedule: Q04DX003 (ip), vehicle: other) 0 of 6.

Take `COC1=C(C)C(=O)C2=C(C1=O)C1C3CC4=C(C(=O)C(OC)=C(C)C4=O)C(CNC(=O)C(C)=O)N3C(C#N)C(C2)N1C` (configuration not stated): the T/C (dose: 0.15 mg/kg/injection, schedule: Q01DX009 (ip), vehicle: Klucel (hydroxypropylcellulose) (HPC)) was 136 % of control.

Take `CCCCCCCCCCC[N+](C)(C)CCCCCC[N+](C)(C)CCCCCCCCCCC`: the T/C (dose: 6.25 mg/kg/injection, schedule: Q01DX009 (ip), vehicle: saline) was 136 % of control. The survivor count was 6 of 6 under setting [2]; 0 of 6 (dose: 50.0 mg/kg/injection, schedule: Q01DX009 (ip), vehicle: saline with Tween-80); 0 of 6 under setting [3]; 0 of 6 under setting [4].

Take `CC(=O)c1ccc2ccccc2c1OC(=O)c1cccnc1`: the T/C (dose: 25.0 mg/kg/injection, schedule: Q01DX009 (ip), vehicle: other) is 127 % of control. Where the note is “dose: 400.0 mg/kg/injection, schedule: Q01DX009 (ip), vehicle: other”, the survivor count was 5 of 6.

`CCCCCCCOc1ccc(OCCCC[N+]2(CC)CCCCC2)cc1`: the survivor count is listed as 4 of 6 under setting [2] and 0 of 6 (dose: 25.0 mg/kg/injection, schedule: Q01DX009 (ip), vehicle: saline).

For the molecule `CC(C)CCNc1ccc(NCCC(C)C)cc1`, the survivor count reads like this: (dose: 37.5 mg/kg/injection, schedule: Q01DX009 (ip), vehicle: alcohol) 4 of 6; (dose: 55.0 mg/kg/injection, schedule: Q04DX003 (ip), vehicle: alcohol) 2 of 6; (dose: 75.0 mg/kg/injection, schedule: Q01DX009 (ip), vehicle: alcohol) 0 of 6.

Consider `CCN(CC)CCNc1ccc(C)c2sc3ccc(O)cc3c(=O)c12`, for which the survivor count under setting [4] is 4 of 6.

For the molecule `O=C(NC1CCCC2C(NC(=O)c3ccccc3)CCCC12)c1ccccc1` (configuration not stated), the survivor count (dose: 66.0 mg/kg/injection, schedule: Q01DX009 (ip), vehicle: saline) was 6 of 6. In addition, where the note is “dose: 100.0 mg/kg/injection, schedule: Q01DX009 (ip), vehicle: saline”, the T/C is 130 % of control.

With `CO[C@@H]1[C@@H](OC2OC(C)C(OC3CC(C)(O)C(OC(=O)CC(C)C)C(C)O3)C(N(C)C)C2O)[C@@H](CC=O)C[C@@H](C)C(=O)/C=C/C2O[C@H]2C[C@@H](C)OC(=O)C[C@H]1OC(C)=O` (some centres not stated), the T/C reads like this: (dose: 300.0 mg/kg/injection, schedule: Q01DX010 (ip), vehicle: water) 136 % of control; under setting [5], 136 % of control. The survivor count is, setting by setting: under setting [5], 2 of 6; (dose: 600.0 mg/kg/injection, schedule: Q01DX010 (ip), vehicle: water) 0 of 6.

With `CNC(=O)O/N=C(\CN=[N+]=[N-])C(C)(C)C`, the T/C (dose: 0.2 mg/kg/injection, schedule: Q01DX009 (ip), vehicle: saline) is 125 % of control and the T/C (dose: 0.39 mg/kg/injection, schedule: Q01DX009 (ip), vehicle: saline) is 127 % of control. Also, the survivor count (dose: 0.78 mg/kg/injection, schedule: Q01DX009 (ip), vehicle: saline) is recorded as 6 of 6 and the survivor count (dose: 1.56 mg/kg/injection, schedule: Q01DX009 (ip), vehicle: saline) was 0 of 6.

`CN(C)c1ccc(C=O)c(Br)c1`: the survivor count is on record as 5 of 6 under setting [6]; 1 of 6 (dose: 200.0 mg/kg/injection, schedule: Q01DX009 (ip), vehicle: Klucel (hydroxypropylcellulose) (HPC)); 1 of 6 (dose: 200.0 mg/kg/injection, schedule: Q04DX003 (ip), vehicle: Klucel (hydroxypropylcellulose) (HPC)); 0 of 6 (dose: 400.0 mg/kg/injection, schedule: Q01DX009 (ip), vehicle: Klucel (hydroxypropylcellulose) (HPC)).

As for `COc1cc2ccc3c[n+]4ccccc4cc3c2cc1OC`, the T/C under setting [6] is 129 % of control.

For the molecule `CN(/N=N/N(C)c1ccccc1)c1ccccc1`, under setting [3], the T/C was 135 % of control.

On to `Nc1nc2c(ncn2C2OC(CO)C(O)C2N)c(=O)[nH]1` (configuration not stated), for which the T/C (dose: 200.0 mg/kg/injection, schedule: Q04DX003 (ip), vehicle: saline with Tween-80) was 126 % of control.

Consider `CCN(CC)CCCC(C)Nc1c2ccc(Cl)cc2nc2ccc(OC)cc12` (configuration not stated), for which the T/C was 131 % of control under setting [7] and 125 % of control (dose: 150.0 mg/kg/injection, schedule: Q04DX003 (ip), vehicle: saline). Also, the survivor count reads like this: under setting [7], 5 of 6; (dose: 225.0 mg/kg/injection, schedule: Q04DX003 (ip), vehicle: saline) 4 of 6; (dose: 300.0 mg/kg/injection, schedule: Q04DX003 (ip), vehicle: saline) 1 of 6.

Turning to `Cc1cc(C)c2cc3cccc[n+]3cc2c1`, the survivor count runs as follows: (dose: 8.0 mg/kg/injection, schedule: Q01DX010 (ip), vehicle: carboxymethylcellulose (CMC)) 2 of 6; (dose: 16.0 mg/kg/injection, schedule: Q01DX010 (ip), vehicle: carboxymethylcellulose (CMC)) 1 of 6; (dose: 32.0 mg/kg/injection, schedule: Q01DX010 (ip), vehicle: carboxymethylcellulose (CMC)) 0 of 6.
